Data published in patent US20150157647A1, “METHODS AND CO[…] TO ACUTE RESPIRATORY DISTRESS SYNDROME” (priority 2013, published 2015).
Several values for one entry are separate records, joined by “and”; a condition that tells them apart may be missing. Equal values may be shown once.

Assay: Serum MBG in rat model of ARDS
Type: in vivo
Details: for Rat serum MBG: individual animals; for Rat serum MBG, mean: mean of 5
[1] = rats with induced ARDS-like syndrome

C[C@]12CC[C@H](O)C[C@@]1(O)CC[C@@H]1[C@@H]2CC[C@]2(C)[C@@H](c3ccc(=O)oc3)C[C@H]3O[C@]132 [MBG, marinobufagenin]
Rat serum MBG (control (sham) rats): 8.5 pg/mL and 10.1 pg/mL and 10.9 pg/mL and 10.0 pg/mL and 7.5 pg/mL | Rat serum MBG, mean (control (sham) rats): 9.4 pg/mL | Rat serum MBG [1]: 40.2 pg/mL and 46.7 pg/mL and 26.7 pg/mL and 23.2 pg/mL and 36.4 pg/mL | Rat serum MBG, mean [1]: 34.6 pg/mL
